# Results from PubChem BioAssay AID1259354 (Paczesny and Yang Labs, IUPUI and University of Michigan, 2018).
# By UniProt entry, the sequences of proteins in these tests, tags left out. Where a name states a change or a piece, a line headed by the entry shows the natural chain unless it says otherwise.
# UniProt Q01638: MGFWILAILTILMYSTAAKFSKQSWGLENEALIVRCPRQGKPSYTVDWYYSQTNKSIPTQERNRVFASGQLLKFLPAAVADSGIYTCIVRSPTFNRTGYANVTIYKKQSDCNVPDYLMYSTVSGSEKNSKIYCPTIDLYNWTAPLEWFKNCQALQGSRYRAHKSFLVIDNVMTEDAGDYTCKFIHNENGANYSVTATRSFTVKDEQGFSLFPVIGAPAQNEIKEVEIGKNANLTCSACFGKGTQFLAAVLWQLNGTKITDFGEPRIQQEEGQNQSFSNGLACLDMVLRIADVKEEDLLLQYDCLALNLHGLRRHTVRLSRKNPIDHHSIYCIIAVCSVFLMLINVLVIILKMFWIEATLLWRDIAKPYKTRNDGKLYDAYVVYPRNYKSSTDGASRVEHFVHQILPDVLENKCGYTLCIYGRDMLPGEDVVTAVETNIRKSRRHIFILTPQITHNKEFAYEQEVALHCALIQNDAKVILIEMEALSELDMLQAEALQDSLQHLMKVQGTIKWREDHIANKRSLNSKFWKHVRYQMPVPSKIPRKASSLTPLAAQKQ
# About 1,800 (2.3%) of roughly 78,000 compounds were called active. The shares of active, inactive and inconclusive entries below differ from those in the screen. Rule as the data show it: active = inhibition above about 30%; inconclusive = mostly about 10% to 28%; inactive = weaker than that. The source holds several records for some structures; these can differ, active in one and inactive in another.
# Target: Interleukin-1 receptor-like 1 (Homo sapiens) (UniProt Q01638)
# Experiment: blocks human ST2 binding to IL-33, primary screen, biochemical, AlphaLISA (AID 1259354)
# Details: AlphaLISA ST2-Fc/biotin-IL-33 interaction, 1 h; at 17 µM, stronger effect = higher value
row,Compound,inhibition
1,NC(=O)c1ccccc1-c1cccc(CN2CCOCC2)c1,inconclusive: 11%
2,Cc1cc(S(=O)(=O)NCC(=O)NC(C)c2cnn(C)c2)ccc1F (stereo not drawn),inactive
3,CCOc1ccc(C2=C(CN3CCOCC3)C(c3ccccc3)c3ccccc3O2)cc1 (stereo not drawn),active: 31%
4,O=C(Cc1ccccc1Br)N(CCCN1CCOCC1)Cc1cccs1,inconclusive: 11%
5,CCN(Cc1ccccc1)S(=O)(=O)c1ccc2c(c1)CCN2C(=O)C1CC1,inconclusive: 29%
6,CCC(C)NC(=O)CCc1nc(-c2ccc(C)cc2)no1 (stereo not drawn),inactive
7,CCC1CN(C(=O)c2ncccc2O)CCC(=O)N1Cc1ccccc1 (stereo not drawn),inconclusive: 14%
8,Cc1ccc(C(=O)N[C@H]2CO[C@H]3[C@@H]2OC[C@@H]3n2nnnc2Oc2ccc(-n3ccnc3)cc2)cc1,inconclusive: 23%
9,COc1ccc2cc(C3CN(c4ncnc5c4CCC5)CCO3)ccc2c1 (stereo not drawn),inconclusive: 10%
10,Cc1nsc(NC(=O)N2CCCC(COc3ccccc3C)C2)n1 (stereo not drawn),inconclusive: 24%
11,CCCNC(=O)C1CCC(Cn2c(=O)c3sccc3n(CC(=O)N(CC)CC)c2=O)CC1 (stereo not drawn),inconclusive: 11%
12,COCc1nc2ccccc2n1Cc1ccc(Cl)cc1,inactive
13,CCn1c(C2CCCN(S(=O)(=O)c3ccc(C)c(C)c3)C2)n[nH]c1=O (stereo not drawn),inactive
14,Cc1c(CC(Cl)(Cl)Cl)c2c(n1-c1ccc([N+](=O)[O-])cc1)CCCC2=O,active: 41%
15,NC1CCC(Nc2nccc(CCC(F)(F)F)n2)CC1 (stereo not drawn),inconclusive: 12%
16,CC(=O)Oc1ccc(N(C(C)=O)S(=O)(=O)c2ccc(Cl)cc2)cc1Cl,inconclusive: 11%
17,Cc1ccc2[nH]nc(-c3ccc(F)c(CO)c3)c2c1,inactive
18,COc1ccc(CNC(=O)c2ccc(Nc3cc(-c4ccccc4)ncn3)cc2)c(OC)c1,inconclusive: 11%
19,COc1ccccc1NC(=O)C1=C(C)Nc2nc3ccccc3n2C1c1ccc(F)cc1 (stereo not drawn),inactive
20,CN1CCCn2nc(C(=O)NCCSc3nnnn3C)cc2C1,inconclusive: 14%
21,CC1=C(C(=O)Nc2cc(C)ccn2)C(c2ccc(Cl)cc2)C2=C(CCCC2=O)N1 (stereo not drawn),inconclusive: 16%
22,O=C(CCN1CCCCO1)N1CCCC1c1nc(-c2ccccc2)no1 (stereo not drawn),inconclusive: 15%
23,COc1cc2c(cc1OC)C(c1cc3c(cc1[N+](=O)[O-])OCO3)N(C(C)=O)CC2 (stereo not drawn),inconclusive: 11%
24,Cc1ccoc1C(=O)NCc1cccnc1N(C)Cc1ccccc1,inactive
25,COC1CCN(S(=O)(=O)N2CCNC(C(=O)O)C2)CC1 (stereo not drawn),inactive

row,Compound,inhibition
1,CC(C)COc1ccc(-c2nc3s/c(=C\c4cccs4)c(=O)n3n2)cc1,inactive
2,CCc1ccc(C2NC(=O)NC(C)=C2C(=O)OCCOc2ccccc2)cc1 (stereo not drawn),inconclusive: 10%
3,Cc1cc(N2CCOCC2)nc(N2CCN(S(=O)(=O)c3ccc(I)cc3)CC2)n1,inconclusive: 14%
4,CCOC(=O)c1c(NC(=O)COc2cccc(Br)c2)sc(C(C)=O)c1C,inactive
5,O=C(O)c1cccn1Cc1cccc(Cl)c1,inactive
6,CC(C)CSc1nnc2c(n1)[nH]c1ccccc12,active: 32%
7,Cc1ccsc1C(CNC1CCSCC1)N(C)C (stereo not drawn),inactive
8,CCOC(=O)c1ccc(N2C(=O)CC(N3CCN(Cc4ccc(Cl)cc4)CC3)C2=O)cc1 (stereo not drawn),inactive
9,Cc1cc(C)nc(NC(=O)CCCC(=O)O)c1,inactive
10,CNC(=O)C1CCC(Cn2c(=O)c3sccc3n(CC(=O)NCc3ccc(OC)cc3)c2=O)CC1 (stereo not drawn),inconclusive: 11%
11,CCc1ccc(S(=O)(=O)N2CCOCC2)cc1,inactive
12,CCCC(=O)Oc1ccc2c(=O)c(Oc3cc(C)cc(C)c3)coc2c1,inactive
13,Cc1cc(C(=O)Nc2ccc(F)cc2F)no1,inactive
14,CC(C)c1nnc(NC(=O)CCC(=O)O)s1,inconclusive: 14%
15,c1ccn2cc(CCNc3ncnc4nc[nH]c34)nc2c1,inconclusive: 10%
16,COCCOC(=O)C1=C(N)OC2=C(C(=O)CCC2)C1c1ccccc1Cl (stereo not drawn),inconclusive: 15%
17,CC(C)CN(Cc1ccccn1)C(=O)c1coc2c1C(=O)CCC2,inactive
18,CC1(C)CC(c2ccc(F)cc2)(C(CN)CO)CCO1 (stereo not drawn),inconclusive: 14%
19,COc1ccc(C)cc1NC(=O)c1cc(OC)c(OC)c(OC)c1Br,inconclusive: 16%
20,CCOC(=O)C1(C/C=C/c2ccccc2)CCCNC1 (stereo not drawn),inactive
21,Cc1ccc(NC(=O)c2ccco2)c(C)c1,inconclusive: 11%
22,Cc1ccc(CNS(=O)(=O)c2ccc3c(c2)c(=O)n(C)c(=O)n3C)cc1,inactive
23,O=C(OCCN1CCOCC1)c1ccc(O)cc1O,inconclusive: 19%
24,COc1cc(/C=C2\NC(=O)N(Cc3ccc(Cl)cc3)C2=O)cc(OC)c1OC,inconclusive: 22%
25,CCC(C)NC(=O)CSCc1nc(-c2ccccc2C)oc1C (stereo not drawn),inconclusive: 11%

row,Compound,inhibition
1,COc1c(C)cnc(CN(C)C(=O)c2ccc(-n3cnnc3)cc2)c1C,inactive
2,C=CCN(C(=O)c1ccccc1NC)C(C)C,inactive
3,O=S(=O)(c1cccc2nsnc12)N1CCN(C23CC4CC(CC(C4)C2)C3)CC1,inactive
4,COc1ccc(N(C)S(=O)(=O)c2ccc3c(c2)CCN3C(=O)C2CC2)cc1,inactive
5,O=C1c2ccccc2C(=O)N1c1ncc(Cc2ccc(Br)cc2)s1,inconclusive: 11%
6,Cc1cccc(N2CCN(C(=O)c3cc(Cn4ccnc4C(C)C)[nH]n3)CC2)n1,inactive
7,Cc1ccc(-c2cccc(C(=O)N[C@H]3C[C@H]4C(=O)N(C)CC(=O)N4C3)c2)o1,inconclusive: 11%
8,COc1cc(-c2nc3c(cnn3-c3ccccc3)c(=O)[nH]2)cc(OC)c1OC,inconclusive: 26%
9,O=S(=O)(Cc1ccccc1)N1CCN(c2cc(-c3ccc(F)cc3)ncn2)CC1,inactive
10,COc1ccc(NC(=O)Cc2ccc(Br)cc2)cc1,inactive
11,O=C(O)C1CN(S(=O)(=O)c2cc3ccccc3o2)CCN1 (stereo not drawn),inactive
12,CCc1nc(C)c(C(=O)NCc2cc(-c3cccnc3)no2)s1,inactive
13,CCOc1cccc(NC(=O)C2CC(=O)N(C)C(=Nc3cccc(C(F)(F)F)c3)S2)c1 (stereo not drawn),inconclusive: 10%
14,O=C(Nc1ccc(Oc2ccccc2)nc1)C1CCN(C(=O)[C@@H]2C[C@@H]3C=C[C@H]2C3)CC1,inactive
15,COc1ccc(CC(=O)Nc2cc(N3CCCS3(=O)=O)ccc2C)cc1,inconclusive: 14%
16,CCOC(=O)c1c(NC(=O)C(C)Oc2ccc(F)cc2)sc2c1CCCC2 (stereo not drawn),inconclusive: 17%
17,O=C(O)C1CCCCC1C(=O)N1CCC(Cc2ccccc2)CC1 (stereo not drawn),inactive
18,CC(C)NC(=O)[C@@H]1C[C@@H](n2cc(-c3cccc(Cl)c3)nn2)CN1,inactive
19,CN1C(=O)c2ccc(NC(=O)c3ccccc3I)cc2C1=O,inconclusive: 13%
20,CCN1C(=O)NC(=O)/C(=C\c2cn(CC(=O)N3CCOCC3)c3ccccc23)C1=O,inactive
21,CCc1ccc(S(=O)(=O)N=C2C=CC(=O)c3ccccc32)cc1,active: 49%
22,Cc1ccc(-c2ccc(CN3CCC(n4cc(CO)nn4)CC3)cc2)o1,inconclusive: 13%
23,CCc1ncc(C(=O)N(Cc2ccsc2)C2CCCC2)cn1,inactive
24,COc1ccc(NC(=O)CN2C(=O)CC(c3ccccc3)=Nc3ccccc32)cc1,inactive
25,Cc1ccc(C)c(C(=O)CN2C3=NCCN3c3ccccc32)c1,inconclusive: 13%

# Four records drawn at random from those above:
row,Compound,inhibition
15,COc1ccc(CC(=O)Nc2cc(N3CCCS3(=O)=O)ccc2C)cc1,inconclusive: 14%
18,CC1(C)CC(c2ccc(F)cc2)(C(CN)CO)CCO1 (stereo not drawn),inconclusive: 14%
4,O=C(Cc1ccccc1Br)N(CCCN1CCOCC1)Cc1cccs1,inconclusive: 11%
15,NC1CCC(Nc2nccc(CCC(F)(F)F)n2)CC1 (stereo not drawn),inconclusive: 12%

# (continued)

row,Compound,inhibition
1,CC(=O)Nc1ccc(S(=O)(=O)N2C[C@@H]3C[C@H](C2)c2c(-c4ccc(Cl)cc4)ccc(=O)n2C3)cc1,inconclusive: 14%
2,COc1ccccc1NC(=O)Nc1ccc(=O)n2c1[C@@H]1C[C@@H](CN(C3CCN(C)CC3)C1)C2,inconclusive: 17%
3,O=C(CSc1nnc2c(n1)[nH]c1ccccc12)Nc1cc(C(F)(F)F)ccc1Cl,inconclusive: 25%
4,c1cnc(-c2cc(NC3CCNCC3)nc3[nH]ccc23)cn1,active: 33%
5,CNC(=O)C(=O)NCCN1CCNCC1,inactive
6,Oc1ccc(-c2csc(Nc3ncccn3)n2)c(O)c1,inconclusive: 10%
7,Cc1nn(CCCC(=O)Nc2ccc(C#N)cc2)c(C)c1[N+](=O)[O-],inconclusive: 11%
8,CS(=O)(=O)c1ccc(-c2nc3ccccc3n2CCO)cc1,inconclusive: 29%
9,O=C(CSc1nncc2ccccc12)c1ccccc1,inconclusive: 20%
10,Cn1c(CN2C[C@H](O)C[C@H]2c2nc(Cc3ccc(F)cc3Cl)no2)nc2ccccc21,inconclusive: 15%
11,CCOc1cc(C(=O)O/N=C(/N)c2ccccn2)cc(OCC)c1OCC,inconclusive: 11%
12,CCN(CC)C(=O)C[C@@H]1CCNC[C@@H]1Cc1cc(C(=O)OC)on1,inconclusive: 15%
13,CN1C(=O)C2(CCN(c3nc(C(N)=O)cs3)CC2)c2ccccc21,inconclusive: 17%
14,COC(=O)C1=C(C)Nc2ncnn2C1c1ccc(Br)cc1 (stereo not drawn),inactive
15,Cn1c(=O)n(Cc2ccccc2)c(=O)c2c1nc(Br)n2Cc1ccccc1,inactive
16,CCCCn1cnc2cc(NCc3ccc(Cl)cc3)ccc21,inconclusive: 14%
17,Cc1cc2n(n1)C(c1ccc(Cl)cc1)CC(c1ccccc1)=N2 (stereo not drawn),active: 30%
18,Cc1ccc(C)c(CSC2=NCCN2C(=O)c2ccc(S(=O)(=O)N(C)C)cc2)c1,inactive
19,CCOc1ccc(-n2c(SCC(=O)Nc3ccc(F)cc3)nc3c(c2=O)SCC3)cc1,inactive
20,Cc1cc(N(C)C)nc(Nc2ccc(NC(=O)c3ccc(C(C)(C)C)cc3)cc2)n1,inconclusive: 27%
21,CCOc1ccc(N=c2scc(-c3ccc(C)cc3)n2C)cc1,active: 43%
22,O=C(Nc1nc(-c2ccc(F)cc2)cs1)c1ccc(Br)o1,inconclusive: 10%
23,Cc1ccc(O)c(N=Cc2cc(Br)cc(Cl)c2O)c1,inconclusive: 22%
